Assay results reported in patent US20100151556A1 (CELLECTIS, published 2010).
Numbering of substitutions follows the chain as printed. No constants are given. Whether binding was seen depends on the method and setting. Some binding calls cover weakened binding; strength is not graded here.

Biological target: T1, M3 I-CreI mutant (RAG1.10.3 cutter) (Chlamydomonas reinhardtii) (UniProt P05725)
T1 sequence: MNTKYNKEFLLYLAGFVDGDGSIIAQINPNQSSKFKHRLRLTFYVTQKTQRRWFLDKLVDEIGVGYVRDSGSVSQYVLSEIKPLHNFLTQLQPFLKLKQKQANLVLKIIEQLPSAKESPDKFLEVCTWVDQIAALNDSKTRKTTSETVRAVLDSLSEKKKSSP
Assay: analytical ultracentrifugation and gel filtration of co-expressed, double-tagged (His/Strep) purified heterodimers

binding: binds
B1: M2 I-CreI mutant (RAG1.10.2 cutter) (enzyme, not shown: small tags and cut ends)
chain: T1 sequence with N28K, N30R, S33N, R38Q, R40S, Y44A, R68Y, Q75D, V77R
